Reference: the supplement of paper PMC10849652
The list shows a part of the results.

By UniProt entry, the sequences of proteins in these tests, tags left out. Where a name states a change or a piece, a line headed by the entry shows the natural chain unless it says otherwise.
UniProt Q6ZNC8: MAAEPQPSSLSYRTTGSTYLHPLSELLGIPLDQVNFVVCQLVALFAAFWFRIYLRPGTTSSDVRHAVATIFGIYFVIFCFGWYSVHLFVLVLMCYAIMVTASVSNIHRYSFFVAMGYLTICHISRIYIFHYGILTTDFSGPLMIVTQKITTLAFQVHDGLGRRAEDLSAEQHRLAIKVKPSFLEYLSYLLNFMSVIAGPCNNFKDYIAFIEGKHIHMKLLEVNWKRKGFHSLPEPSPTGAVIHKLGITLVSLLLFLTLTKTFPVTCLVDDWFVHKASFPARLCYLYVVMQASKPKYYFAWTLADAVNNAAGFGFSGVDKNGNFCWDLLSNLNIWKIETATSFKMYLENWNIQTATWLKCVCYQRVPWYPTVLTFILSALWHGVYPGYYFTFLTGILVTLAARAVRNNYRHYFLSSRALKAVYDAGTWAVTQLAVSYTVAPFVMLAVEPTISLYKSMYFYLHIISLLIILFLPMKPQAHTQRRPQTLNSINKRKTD
UniProt Q96N66: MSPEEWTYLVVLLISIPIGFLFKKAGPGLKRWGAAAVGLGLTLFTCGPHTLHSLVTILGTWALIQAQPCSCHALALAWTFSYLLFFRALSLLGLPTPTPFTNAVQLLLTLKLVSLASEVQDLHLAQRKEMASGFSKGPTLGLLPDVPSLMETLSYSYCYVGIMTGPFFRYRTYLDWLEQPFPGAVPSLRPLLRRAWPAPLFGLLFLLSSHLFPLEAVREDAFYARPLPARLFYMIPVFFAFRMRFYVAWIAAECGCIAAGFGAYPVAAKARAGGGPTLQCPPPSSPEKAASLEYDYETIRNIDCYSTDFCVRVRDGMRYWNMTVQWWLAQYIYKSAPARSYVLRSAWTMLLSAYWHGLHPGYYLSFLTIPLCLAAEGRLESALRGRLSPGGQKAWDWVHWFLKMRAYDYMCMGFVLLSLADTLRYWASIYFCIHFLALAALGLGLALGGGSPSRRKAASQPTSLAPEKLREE
UniProt Q96PE7: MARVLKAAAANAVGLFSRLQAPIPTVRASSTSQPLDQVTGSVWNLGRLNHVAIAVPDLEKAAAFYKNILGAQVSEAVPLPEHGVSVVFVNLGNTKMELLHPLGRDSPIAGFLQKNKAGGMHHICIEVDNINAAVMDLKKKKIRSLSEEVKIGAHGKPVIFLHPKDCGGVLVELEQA
UniProt P56270: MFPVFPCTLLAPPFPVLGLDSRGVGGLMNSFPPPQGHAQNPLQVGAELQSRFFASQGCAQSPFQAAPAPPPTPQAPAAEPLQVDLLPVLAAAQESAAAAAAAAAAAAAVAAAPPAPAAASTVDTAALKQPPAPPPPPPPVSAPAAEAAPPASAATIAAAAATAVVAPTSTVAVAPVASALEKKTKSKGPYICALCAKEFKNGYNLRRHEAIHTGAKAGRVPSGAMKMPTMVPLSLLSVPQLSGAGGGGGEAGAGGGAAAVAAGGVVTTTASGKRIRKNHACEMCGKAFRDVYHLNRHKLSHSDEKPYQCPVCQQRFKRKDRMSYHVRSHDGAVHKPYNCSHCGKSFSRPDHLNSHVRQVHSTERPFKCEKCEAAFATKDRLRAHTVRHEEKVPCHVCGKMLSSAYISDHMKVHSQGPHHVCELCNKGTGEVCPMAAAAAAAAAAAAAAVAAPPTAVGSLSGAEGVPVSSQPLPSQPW
UniProt P51608, whole entry, looked up: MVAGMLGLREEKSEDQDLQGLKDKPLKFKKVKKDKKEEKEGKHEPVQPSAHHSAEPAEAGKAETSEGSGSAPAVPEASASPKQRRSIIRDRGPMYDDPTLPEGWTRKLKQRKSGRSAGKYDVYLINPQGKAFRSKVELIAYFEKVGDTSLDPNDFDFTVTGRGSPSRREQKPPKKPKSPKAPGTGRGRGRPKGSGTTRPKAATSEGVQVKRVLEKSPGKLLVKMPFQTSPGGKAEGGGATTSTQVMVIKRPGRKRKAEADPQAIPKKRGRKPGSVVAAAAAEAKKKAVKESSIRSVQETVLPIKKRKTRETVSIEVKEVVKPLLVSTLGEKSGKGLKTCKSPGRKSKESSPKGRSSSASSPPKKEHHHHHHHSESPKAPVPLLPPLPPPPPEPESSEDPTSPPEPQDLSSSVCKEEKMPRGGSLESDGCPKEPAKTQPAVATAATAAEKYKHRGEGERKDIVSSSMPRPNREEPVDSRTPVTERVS
UniProt Q7Z434: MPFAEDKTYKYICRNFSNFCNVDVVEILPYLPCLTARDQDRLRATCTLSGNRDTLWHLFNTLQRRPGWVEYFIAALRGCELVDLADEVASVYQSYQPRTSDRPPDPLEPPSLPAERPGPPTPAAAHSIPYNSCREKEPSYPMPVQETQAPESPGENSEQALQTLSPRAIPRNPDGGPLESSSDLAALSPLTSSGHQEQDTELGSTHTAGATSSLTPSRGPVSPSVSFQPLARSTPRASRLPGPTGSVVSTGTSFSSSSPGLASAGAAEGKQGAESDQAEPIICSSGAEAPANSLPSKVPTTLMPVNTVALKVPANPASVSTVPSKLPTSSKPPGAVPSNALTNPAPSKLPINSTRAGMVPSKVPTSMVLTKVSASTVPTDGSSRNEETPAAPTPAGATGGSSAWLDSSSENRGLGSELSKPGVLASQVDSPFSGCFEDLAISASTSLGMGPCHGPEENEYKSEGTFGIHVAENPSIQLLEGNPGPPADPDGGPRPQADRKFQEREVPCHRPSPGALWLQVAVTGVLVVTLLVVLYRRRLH
UniProt P40925: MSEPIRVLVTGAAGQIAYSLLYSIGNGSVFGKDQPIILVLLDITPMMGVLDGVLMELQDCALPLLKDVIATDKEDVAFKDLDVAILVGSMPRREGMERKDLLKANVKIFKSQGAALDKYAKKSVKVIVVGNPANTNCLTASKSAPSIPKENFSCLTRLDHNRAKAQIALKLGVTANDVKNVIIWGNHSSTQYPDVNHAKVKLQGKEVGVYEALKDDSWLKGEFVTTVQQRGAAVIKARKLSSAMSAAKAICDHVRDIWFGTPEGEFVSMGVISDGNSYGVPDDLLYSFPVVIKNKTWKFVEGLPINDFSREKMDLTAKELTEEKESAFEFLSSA
UniProt Q96GW9: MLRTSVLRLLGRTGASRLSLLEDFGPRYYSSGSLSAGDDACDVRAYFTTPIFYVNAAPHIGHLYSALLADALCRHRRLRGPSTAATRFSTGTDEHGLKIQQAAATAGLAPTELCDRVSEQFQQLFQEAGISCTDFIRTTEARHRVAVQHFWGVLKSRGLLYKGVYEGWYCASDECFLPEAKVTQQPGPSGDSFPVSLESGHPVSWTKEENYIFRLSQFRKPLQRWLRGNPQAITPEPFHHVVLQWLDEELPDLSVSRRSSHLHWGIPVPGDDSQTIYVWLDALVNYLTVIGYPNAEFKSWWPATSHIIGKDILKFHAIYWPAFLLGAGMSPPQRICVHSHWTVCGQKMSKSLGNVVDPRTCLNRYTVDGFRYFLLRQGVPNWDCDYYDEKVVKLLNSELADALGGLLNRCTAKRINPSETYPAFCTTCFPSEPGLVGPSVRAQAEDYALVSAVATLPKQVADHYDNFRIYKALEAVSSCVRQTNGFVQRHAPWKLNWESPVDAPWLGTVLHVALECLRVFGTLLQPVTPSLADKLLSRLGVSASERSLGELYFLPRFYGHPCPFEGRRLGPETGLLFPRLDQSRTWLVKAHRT
UniProt Q9ULK4: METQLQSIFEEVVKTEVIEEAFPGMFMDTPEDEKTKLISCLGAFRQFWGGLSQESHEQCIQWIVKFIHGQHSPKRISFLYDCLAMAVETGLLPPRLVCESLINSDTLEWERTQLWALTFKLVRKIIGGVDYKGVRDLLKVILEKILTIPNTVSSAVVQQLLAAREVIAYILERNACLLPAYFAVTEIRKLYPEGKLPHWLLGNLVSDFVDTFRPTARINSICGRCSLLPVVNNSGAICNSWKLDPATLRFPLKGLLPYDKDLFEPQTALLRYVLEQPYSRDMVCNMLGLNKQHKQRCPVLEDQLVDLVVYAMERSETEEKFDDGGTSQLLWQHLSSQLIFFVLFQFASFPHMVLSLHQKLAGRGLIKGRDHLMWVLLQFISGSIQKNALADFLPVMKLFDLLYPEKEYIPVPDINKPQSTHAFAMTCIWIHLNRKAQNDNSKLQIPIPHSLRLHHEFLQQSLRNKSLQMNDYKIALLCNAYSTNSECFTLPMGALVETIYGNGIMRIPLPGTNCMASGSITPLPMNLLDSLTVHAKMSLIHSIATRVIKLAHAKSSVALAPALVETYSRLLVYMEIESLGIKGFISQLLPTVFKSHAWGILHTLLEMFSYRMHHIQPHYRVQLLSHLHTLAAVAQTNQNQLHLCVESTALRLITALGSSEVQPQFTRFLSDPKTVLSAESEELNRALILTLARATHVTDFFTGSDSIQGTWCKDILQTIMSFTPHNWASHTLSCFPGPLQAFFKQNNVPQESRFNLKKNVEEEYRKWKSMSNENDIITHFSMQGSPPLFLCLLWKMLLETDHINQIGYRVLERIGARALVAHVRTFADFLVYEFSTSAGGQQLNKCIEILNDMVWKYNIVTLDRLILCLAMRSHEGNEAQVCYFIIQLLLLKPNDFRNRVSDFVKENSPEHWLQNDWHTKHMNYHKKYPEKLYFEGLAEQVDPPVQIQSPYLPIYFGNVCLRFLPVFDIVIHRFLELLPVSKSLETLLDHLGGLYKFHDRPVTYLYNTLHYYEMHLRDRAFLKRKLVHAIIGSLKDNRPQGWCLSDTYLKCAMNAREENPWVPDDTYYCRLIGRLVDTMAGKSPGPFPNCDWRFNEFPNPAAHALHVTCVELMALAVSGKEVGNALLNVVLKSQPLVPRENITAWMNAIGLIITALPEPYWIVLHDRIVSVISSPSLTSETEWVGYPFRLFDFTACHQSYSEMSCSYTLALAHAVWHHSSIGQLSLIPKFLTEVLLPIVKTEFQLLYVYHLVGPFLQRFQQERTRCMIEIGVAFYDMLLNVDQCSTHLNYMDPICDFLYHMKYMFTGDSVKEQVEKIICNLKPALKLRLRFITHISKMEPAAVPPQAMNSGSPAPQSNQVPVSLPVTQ
UniProt Q08431: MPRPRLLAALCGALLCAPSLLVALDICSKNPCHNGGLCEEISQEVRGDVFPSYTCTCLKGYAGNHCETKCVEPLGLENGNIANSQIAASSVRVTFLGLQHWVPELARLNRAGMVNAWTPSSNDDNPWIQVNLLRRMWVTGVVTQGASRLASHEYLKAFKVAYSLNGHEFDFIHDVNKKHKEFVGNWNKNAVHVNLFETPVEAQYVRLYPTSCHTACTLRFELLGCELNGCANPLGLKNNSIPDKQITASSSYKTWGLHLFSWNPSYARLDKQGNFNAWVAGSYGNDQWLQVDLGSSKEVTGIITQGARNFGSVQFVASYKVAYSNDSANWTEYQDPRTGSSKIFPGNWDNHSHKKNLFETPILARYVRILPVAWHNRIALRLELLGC
UniProt Q9NRN9: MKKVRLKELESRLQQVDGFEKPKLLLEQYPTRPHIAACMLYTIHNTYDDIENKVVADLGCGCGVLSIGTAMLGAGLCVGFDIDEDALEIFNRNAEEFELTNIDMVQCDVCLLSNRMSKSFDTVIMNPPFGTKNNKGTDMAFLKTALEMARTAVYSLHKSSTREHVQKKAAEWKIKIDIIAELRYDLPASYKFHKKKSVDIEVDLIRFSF
UniProt O95568: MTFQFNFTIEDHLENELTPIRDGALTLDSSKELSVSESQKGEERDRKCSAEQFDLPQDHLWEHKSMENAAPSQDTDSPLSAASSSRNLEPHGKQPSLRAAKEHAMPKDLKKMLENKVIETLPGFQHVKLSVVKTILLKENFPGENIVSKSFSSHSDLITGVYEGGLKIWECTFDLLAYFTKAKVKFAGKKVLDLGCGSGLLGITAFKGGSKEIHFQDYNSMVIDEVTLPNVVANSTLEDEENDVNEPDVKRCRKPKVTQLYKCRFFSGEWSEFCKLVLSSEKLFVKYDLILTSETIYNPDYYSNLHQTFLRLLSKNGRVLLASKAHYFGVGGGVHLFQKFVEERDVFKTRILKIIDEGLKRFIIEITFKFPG
UniProt Q9HCE5: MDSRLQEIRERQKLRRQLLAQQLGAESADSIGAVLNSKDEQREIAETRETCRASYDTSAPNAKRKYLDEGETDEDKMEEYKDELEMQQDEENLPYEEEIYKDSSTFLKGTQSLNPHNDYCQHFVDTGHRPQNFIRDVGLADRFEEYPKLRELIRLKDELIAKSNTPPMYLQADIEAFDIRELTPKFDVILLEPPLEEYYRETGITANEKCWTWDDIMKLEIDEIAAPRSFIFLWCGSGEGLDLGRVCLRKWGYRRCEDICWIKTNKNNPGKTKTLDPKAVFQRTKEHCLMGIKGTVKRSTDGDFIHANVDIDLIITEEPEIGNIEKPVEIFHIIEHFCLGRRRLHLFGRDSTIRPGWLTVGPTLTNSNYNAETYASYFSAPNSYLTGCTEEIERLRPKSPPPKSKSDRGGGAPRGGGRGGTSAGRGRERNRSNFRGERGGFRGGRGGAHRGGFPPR
UniProt Q9H944: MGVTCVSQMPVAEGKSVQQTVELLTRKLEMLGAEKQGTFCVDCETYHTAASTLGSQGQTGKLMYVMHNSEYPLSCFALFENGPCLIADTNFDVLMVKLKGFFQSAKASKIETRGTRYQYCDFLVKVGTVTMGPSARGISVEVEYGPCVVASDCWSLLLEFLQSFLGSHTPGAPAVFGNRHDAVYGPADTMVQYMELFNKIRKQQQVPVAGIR

What was measured:
Test in all cases: log2 fold change, soluble protein after heating vs DMSO (PISA); higher = thermal stabilisation; K562 cells, 10 uM, 30 min; active = over 0.2 and 3.5 SD of the protein, either way, in both replicates (recomputed)
erlotinib = compound: C#Cc1cccc(Nc2ncnc3cc(OCCOC)c(OCCOC)cc23)c1 [erlotinib]
How it was run: (§1)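 Thermal stability values are relative to control samples and come from duplicates. They are expressed as log2 fold changes. For measurement, K562 cells (2×10^6 cells/mL) received 10 μM compound for 30 min, and aliquots were heated for 3 min over 48°C-58°C, pooled, and extracted at 4°C in PBS with 0.5% NP-40. Soluble protein, the supernatant after 21,000xg for 90 min, was quantified by TMTpro 16plex LC-MS/MS with equalised channel sums.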

[1] = compound: C/C(=N\NC(=O)C1=CC(=CC=C1)S(=O)(=O)N2CCOCC2)/C3=C(C=CC(=C3)Cl)O
How it was run: as §1

[2] = compound: C1=CC(=C(C=C1Cl)C2=NC3=NC=CN=C3C(=N2)NC4=CC=NC=C4)F
How it was run: as §1

[3] = compound: C1=CC(=CC=C1C2=NC3=C(N2)C=C(C=C3)C(=O)N)OC4=CC=C(C=C4)Cl
How it was run: as §1

[4] = compound: C1=CC2=C(C=CC(=C2)/C=C\3/C(=O)NC(=NCC4=CC=CS4)S3)N=C1
How it was run: as §1

[5] = compound: C1=CC2=NC=CN=C2C=C1/C=C/3\C(=O)NC(=O)S3
How it was run: as §1

[6] = compound: C1=CC=C(C=C1)C2=NC(=C(N2)C3=CC=NC=C3)C4=CC(=C(C=C4)Cl)O
How it was run: as §1

[7] = compound: C1=CC=C2C(=C1)C3=NNC4=CC=CC(=C43)C2=O
How it was run: as §1

[8] = compound: C1CCN(C1)C(=O)NC2=CC=CC(=C2)NC3=NC=C(C(=N3)NCCC4=CN=CN4)Br
How it was run: as §1

[9] = compound: C1CN(CCC1(CC2=CC=C(C=C2)Cl)N)C3=NC=NC4=C3C=CN4
How it was run: as §1

Measured: log2 fold change

MAT2A (UniProt P31153)
inactive: erlotinib 0.053 | [1] -0.037 | [2] 0.021 | [3] -0.024 | [4] -0.008 | [5] -0.003 | [6] -0.017 | [7] -0.021 | [8] 0.026 | [9] 0.044

MED8 isoform 2 (UniProt Q96G25)
inactive: erlotinib 0.017 | [1] -0.19 | [2] -0.056 | [3] 0.035 | [4] -0.031 | [5] 0.152 | [6] -0.153 | [7] -0.196

METAP2 (UniProt P50579)
inactive: erlotinib 0 | [1] -0.036 | [2] -0.029 | [3] 0.036 | [4] 0.004 | [5] -0.024 | [6] 0.057 | [7] -0.026 | [8] -0.019 | [9] 0.03

MGST3 (UniProt O14880)
inactive: erlotinib -0.025 | [1] -0.03 | [2] 0.013 | [3] 0.003 | [4] 0.006 | [5] 0.041 | [6] -0.022 | [7] -0.023 | [8] 0.019 | [9] 0.016

MBOAT1 (UniProt Q6ZNC8)
inactive: erlotinib -0.036 | [1] -0.011 | [2] 0.034 | [3] -0.021 | [4] 0.026 | [5] -0.059 | [6] 0.08 | [7] -0.067 | [8] -0.071 | [9] 0.044

MFF (UniProt Q9GZY8)
inactive: erlotinib 0.02 | [1] -0.022 | [2] 0.011 | [3] -0.024 | [4] 0.107 | [5] 0.057 | [6] -0.008 | [7] -0.062 | [8] 0.007 | [9] 0.032

MBOAT7 (UniProt Q96N66)
inactive: erlotinib 0.018 | [1] 0.025 | [2] 0.064 | [3] 0.022 | [4] 0.036 | [5] 0.027 | [6] 0.016 | [7] -0.014 | [8] 0.021 | [9] 0.084

MCEE (UniProt Q96PE7)
inactive: erlotinib 0.005 | [1] 0.021 | [2] 0.014 | [3] -0.052 | [4] 0.058 | [5] 0.022 | [6] -0.021 | [7] -0.053 | [8] -0.025 | [9] -0.023

MFSD5 isoform 2 (UniProt Q6N075)
inactive: erlotinib 0.147 | [1] 0.057 | [2] 0.041 | [3] 0.115 | [4] -0.061 | [5] 0.038 | [6] -0.144 | [7] 0.109 | [8] 0.014 | [9] 0.034

MAZ isoform 2 (UniProt P56270)
inactive: erlotinib -0.102 | [1] -0.162 | [2] -0.25 | [3] -0.02 | [4] -0.075 | [5] -0.083 | [6] 0.02 | [7] 0.058 | [8] -0.034 | [9] -0.027

MEF2D (UniProt Q14814)
inactive: erlotinib -0.01 | [1] 0.056 | [2] -0.033 | [3] 0.034 | [4] 0.02 | [5] -0.054 | [6] 0.025 | [7] -0.061 | [8] -0.029 | [9] -0.018

MECP2 isoform 2 (UniProt P51608)
inactive: erlotinib -0.107 | [1] -0.272 | [2] -0.39 | [3] 0.057 | [4] -0.062 | [5] -0.08 | [6] -0.023 | [7] -0.051 | [8] 0.052 | [9] -0.134

MEAF6 isoform 3 (UniProt Q9HAF1)
inactive: erlotinib -0.028 | [1] -0.039 | [2] -0.129 | [3] 0.013 | [4] -0.04 | [5] -0.007 | [6] -0.088 | [7] -0.009 | [8] -0.065 | [9] 0.041

MFN2 (UniProt O95140)
inactive: erlotinib 0.027 | [1] 0.049 | [2] 0.007 | [3] -0.001 | [4] 0.026 | [5] 0.008 | [6] 0.041 | [7] -0.003 | [8] -0.016 | [9] -0.019

MAVS (UniProt Q7Z434)
inactive: erlotinib 0.04 | [1] 0.003 | [2] 0.061 | [3] -0.03 | [4] 0.006 | [5] 0.031 | [6] 0.024 | [7] 0.002 | [8] -0.014 | [9] 0.014

MDH1 isoform 3 (UniProt P40925)
inactive: erlotinib -0.004 | [1] 0.007 | [2] 0.086 | [3] -0.019 | [4] -0.03 | [5] -0.02 | [6] -0.001 | [7] 0.009 | [8] 0.001 | [9] 0.018

MARS2 (UniProt Q96GW9)
inactive: erlotinib -0.015 | [1] 0.002 | [2] 0.025 | [3] 0.018 | [4] 0 | [5] 0.024 | [6] -0.01 | [7] -0.027 | [8] -0.001 | [9] 0.017

MED23 (UniProt Q9ULK4)
inactive: erlotinib -0.01 | [1] 0.045 | [2] 0.03 | [3] 0.002 | [4] 0.11 | [5] 0.031 | [6] -0.032 | [7] 0.061 | [8] -0.049 | [9] 0.02

MFGE8 (UniProt Q08431)
inactive: erlotinib -0.135 | [1] -0.032 | [2] -0.149 | [3] 0.045 | [4] -0.059 | [5] -0.024 | [6] 0.024 | [7] 0.095 | [8] -0.041 | [9] -0.066

ME2 (UniProt P23368)
inactive: erlotinib -0.017 | [1] -0.017 | [2] 0.01 | [3] -0.078 | [4] 0.036 | [5] -0.024 | [6] 0.055 | [7] -0.061 | [8] 0.008 | [9] 0.081

MED22 (UniProt Q15528)
inactive: erlotinib -0.11 | [1] 0.035 | [2] -0.013 | [3] -0.036 | [4] 0.061 | [5] -0.002 | [6] 0.022 | [7] -0.071 | [8] -0.156 | [9] 0.259

MED12 isoform 2 (UniProt Q93074)
inactive: erlotinib 0.022 | [1] 0.04 | [2] -0.031 | [3] 0.188 | [4] 0.101 | [5] 0.121 | [6] 0.012 | [7] -0.361 | [8] 0.193 | [9] -0.11

METTL5 (UniProt Q9NRN9)
inactive: erlotinib 0.035 | [1] 0.021 | [2] -0.011 | [3] 0.021 | [4] -0.041 | [5] 0.007 | [6] -0.048 | [7] 0.01 | [8] 0.003 | [9] 0.071

MESD (UniProt Q14696)
inactive: erlotinib -0.009 | [1] 0.015 | [2] 0.005 | [3] -0.013 | [4] -0.013 | [5] 0.03 | [6] -0.03 | [7] -0.018 | [8] 0.004 | [9] 0.003

METTL18 (UniProt O95568)
inactive: erlotinib -0.042 | [1] -0.037 | [2] -0.08 | [3] 0.027 | [4] 0.038 | [5] 0.046 | [6] -0.039 | [7] -0.06 | [8] 0.028 | [9] 0.078

Taken from the listing (two entries):
MED22 (UniProt Q15528)
inactive: erlotinib -0.11 | [1] 0.035 | [2] -0.013 | [3] -0.036 | [4] 0.061 | [5] -0.002 | [6] 0.022 | [7] -0.071 | [8] -0.156 | [9] 0.259

MED12 isoform 2 (UniProt Q93074)
inactive: erlotinib 0.022 | [1] 0.04 | [2] -0.031 | [3] 0.188 | [4] 0.101 | [5] 0.121 | [6] 0.012 | [7] -0.361 | [8] 0.193 | [9] -0.11

More results

METTL14 (UniProt Q9HCE5)
inactive: erlotinib -0.014 | [1] 0.055 | [2] 0.031 | [3] 0.008 | [4] -0.018 | [5] 0.027 | [6] 0.001 | [7] 0.037 | [8] 0.022 | [9] 0.007

MED20 (UniProt Q9H944)
inactive: erlotinib 0.039 | [1] 0.102 | [2] 0.043 | [3] 0.02 | [4] 0.072 | [5] 0.032 | [6] 0.033 | [7] 0.007 | [8] -0.014 | [9] 0.069
